This is one part of the list.
Compound: Cc1cc(ccc1-c1ccccc1)C(=O)N1CCCN(CC1)C(=O)CCl [compound 10]
Assay: probe-labelled cysteine peptide fold change vs DMSO (competition) (log2 fold change); higher = less target engagement (more negative = stronger competition)
Conditions: THP-1, incubation time: 4 h
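Further: competitive profiling in live THP-1 cells: cysteine peptides tagged with an iodoacetamide desthiobiotin (IA-DTB) probe, intensity after compound treatment relative to DMSO-treated cells.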

Amino acid sequences for entries named in this document (tags omitted). A change or cut given only in a name is not applied to a line headed by its entry.
UniProt Q8N5C6: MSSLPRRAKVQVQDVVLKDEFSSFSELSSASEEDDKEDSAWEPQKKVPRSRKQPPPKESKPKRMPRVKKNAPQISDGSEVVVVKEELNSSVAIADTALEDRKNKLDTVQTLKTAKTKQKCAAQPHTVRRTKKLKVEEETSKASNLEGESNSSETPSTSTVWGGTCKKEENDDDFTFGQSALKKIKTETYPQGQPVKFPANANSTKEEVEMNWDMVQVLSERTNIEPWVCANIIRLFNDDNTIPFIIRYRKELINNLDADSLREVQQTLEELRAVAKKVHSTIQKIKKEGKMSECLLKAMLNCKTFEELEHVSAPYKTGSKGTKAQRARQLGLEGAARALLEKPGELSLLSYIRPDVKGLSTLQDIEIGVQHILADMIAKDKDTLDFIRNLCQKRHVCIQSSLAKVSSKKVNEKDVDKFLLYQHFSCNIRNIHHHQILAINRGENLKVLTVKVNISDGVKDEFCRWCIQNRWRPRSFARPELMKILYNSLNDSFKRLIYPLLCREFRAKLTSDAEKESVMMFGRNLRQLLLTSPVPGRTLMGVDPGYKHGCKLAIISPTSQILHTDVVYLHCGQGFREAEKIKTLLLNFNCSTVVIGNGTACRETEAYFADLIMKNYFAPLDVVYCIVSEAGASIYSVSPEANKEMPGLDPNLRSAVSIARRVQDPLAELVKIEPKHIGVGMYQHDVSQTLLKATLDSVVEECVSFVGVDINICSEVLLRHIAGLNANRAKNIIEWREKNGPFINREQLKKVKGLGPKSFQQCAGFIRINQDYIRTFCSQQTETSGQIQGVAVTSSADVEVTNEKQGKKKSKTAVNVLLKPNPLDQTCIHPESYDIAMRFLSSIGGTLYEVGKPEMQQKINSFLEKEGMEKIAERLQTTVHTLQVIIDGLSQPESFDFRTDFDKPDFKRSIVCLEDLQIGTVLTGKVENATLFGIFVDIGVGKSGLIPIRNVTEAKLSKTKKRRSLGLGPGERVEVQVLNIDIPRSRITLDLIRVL
UniProt P55769: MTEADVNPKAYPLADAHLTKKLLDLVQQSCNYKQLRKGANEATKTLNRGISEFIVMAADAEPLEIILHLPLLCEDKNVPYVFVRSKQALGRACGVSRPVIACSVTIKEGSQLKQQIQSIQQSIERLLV
UniProt P19623: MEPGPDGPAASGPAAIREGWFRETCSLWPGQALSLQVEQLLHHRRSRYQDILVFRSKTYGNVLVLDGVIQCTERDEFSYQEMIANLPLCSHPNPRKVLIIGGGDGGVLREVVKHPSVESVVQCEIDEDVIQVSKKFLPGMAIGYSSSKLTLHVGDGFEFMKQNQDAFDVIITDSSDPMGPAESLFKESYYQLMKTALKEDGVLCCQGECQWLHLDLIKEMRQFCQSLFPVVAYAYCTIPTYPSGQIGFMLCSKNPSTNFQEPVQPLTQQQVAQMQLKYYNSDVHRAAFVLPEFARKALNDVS
UniProt P78362, whole entry, looked up: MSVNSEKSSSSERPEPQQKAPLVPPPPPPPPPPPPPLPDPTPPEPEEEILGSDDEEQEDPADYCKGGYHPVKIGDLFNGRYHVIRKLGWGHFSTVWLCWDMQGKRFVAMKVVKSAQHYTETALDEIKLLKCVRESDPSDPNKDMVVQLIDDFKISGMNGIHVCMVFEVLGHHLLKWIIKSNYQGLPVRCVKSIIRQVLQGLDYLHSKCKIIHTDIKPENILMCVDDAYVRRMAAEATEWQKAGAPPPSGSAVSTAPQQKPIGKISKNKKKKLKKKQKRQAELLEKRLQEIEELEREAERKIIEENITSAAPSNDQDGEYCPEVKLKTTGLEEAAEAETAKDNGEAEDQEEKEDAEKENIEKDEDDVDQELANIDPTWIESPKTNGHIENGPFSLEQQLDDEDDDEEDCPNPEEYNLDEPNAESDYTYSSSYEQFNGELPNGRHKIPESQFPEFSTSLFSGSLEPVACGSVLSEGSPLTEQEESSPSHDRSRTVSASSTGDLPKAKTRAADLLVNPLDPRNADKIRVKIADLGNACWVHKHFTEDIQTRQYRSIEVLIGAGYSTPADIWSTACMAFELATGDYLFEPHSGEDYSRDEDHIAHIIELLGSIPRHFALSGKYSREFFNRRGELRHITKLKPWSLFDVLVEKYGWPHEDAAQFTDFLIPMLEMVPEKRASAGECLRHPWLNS
UniProt O76094: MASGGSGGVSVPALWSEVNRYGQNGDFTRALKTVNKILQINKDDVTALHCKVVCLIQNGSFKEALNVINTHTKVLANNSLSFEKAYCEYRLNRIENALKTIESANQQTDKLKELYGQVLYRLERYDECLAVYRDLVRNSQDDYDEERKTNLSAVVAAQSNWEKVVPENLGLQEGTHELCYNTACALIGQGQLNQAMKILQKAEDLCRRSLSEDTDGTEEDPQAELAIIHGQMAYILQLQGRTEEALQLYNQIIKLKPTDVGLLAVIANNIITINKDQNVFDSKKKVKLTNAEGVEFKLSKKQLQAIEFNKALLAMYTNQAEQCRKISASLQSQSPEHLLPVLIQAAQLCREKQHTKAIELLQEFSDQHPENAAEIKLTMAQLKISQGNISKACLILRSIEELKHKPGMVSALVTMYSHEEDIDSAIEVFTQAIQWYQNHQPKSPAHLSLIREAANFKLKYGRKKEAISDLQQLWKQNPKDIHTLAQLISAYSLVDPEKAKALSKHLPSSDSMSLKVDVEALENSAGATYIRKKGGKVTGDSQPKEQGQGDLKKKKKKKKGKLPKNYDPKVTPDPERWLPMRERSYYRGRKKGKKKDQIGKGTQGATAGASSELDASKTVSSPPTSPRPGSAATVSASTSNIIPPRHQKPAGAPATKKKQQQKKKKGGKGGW
UniProt Q92673: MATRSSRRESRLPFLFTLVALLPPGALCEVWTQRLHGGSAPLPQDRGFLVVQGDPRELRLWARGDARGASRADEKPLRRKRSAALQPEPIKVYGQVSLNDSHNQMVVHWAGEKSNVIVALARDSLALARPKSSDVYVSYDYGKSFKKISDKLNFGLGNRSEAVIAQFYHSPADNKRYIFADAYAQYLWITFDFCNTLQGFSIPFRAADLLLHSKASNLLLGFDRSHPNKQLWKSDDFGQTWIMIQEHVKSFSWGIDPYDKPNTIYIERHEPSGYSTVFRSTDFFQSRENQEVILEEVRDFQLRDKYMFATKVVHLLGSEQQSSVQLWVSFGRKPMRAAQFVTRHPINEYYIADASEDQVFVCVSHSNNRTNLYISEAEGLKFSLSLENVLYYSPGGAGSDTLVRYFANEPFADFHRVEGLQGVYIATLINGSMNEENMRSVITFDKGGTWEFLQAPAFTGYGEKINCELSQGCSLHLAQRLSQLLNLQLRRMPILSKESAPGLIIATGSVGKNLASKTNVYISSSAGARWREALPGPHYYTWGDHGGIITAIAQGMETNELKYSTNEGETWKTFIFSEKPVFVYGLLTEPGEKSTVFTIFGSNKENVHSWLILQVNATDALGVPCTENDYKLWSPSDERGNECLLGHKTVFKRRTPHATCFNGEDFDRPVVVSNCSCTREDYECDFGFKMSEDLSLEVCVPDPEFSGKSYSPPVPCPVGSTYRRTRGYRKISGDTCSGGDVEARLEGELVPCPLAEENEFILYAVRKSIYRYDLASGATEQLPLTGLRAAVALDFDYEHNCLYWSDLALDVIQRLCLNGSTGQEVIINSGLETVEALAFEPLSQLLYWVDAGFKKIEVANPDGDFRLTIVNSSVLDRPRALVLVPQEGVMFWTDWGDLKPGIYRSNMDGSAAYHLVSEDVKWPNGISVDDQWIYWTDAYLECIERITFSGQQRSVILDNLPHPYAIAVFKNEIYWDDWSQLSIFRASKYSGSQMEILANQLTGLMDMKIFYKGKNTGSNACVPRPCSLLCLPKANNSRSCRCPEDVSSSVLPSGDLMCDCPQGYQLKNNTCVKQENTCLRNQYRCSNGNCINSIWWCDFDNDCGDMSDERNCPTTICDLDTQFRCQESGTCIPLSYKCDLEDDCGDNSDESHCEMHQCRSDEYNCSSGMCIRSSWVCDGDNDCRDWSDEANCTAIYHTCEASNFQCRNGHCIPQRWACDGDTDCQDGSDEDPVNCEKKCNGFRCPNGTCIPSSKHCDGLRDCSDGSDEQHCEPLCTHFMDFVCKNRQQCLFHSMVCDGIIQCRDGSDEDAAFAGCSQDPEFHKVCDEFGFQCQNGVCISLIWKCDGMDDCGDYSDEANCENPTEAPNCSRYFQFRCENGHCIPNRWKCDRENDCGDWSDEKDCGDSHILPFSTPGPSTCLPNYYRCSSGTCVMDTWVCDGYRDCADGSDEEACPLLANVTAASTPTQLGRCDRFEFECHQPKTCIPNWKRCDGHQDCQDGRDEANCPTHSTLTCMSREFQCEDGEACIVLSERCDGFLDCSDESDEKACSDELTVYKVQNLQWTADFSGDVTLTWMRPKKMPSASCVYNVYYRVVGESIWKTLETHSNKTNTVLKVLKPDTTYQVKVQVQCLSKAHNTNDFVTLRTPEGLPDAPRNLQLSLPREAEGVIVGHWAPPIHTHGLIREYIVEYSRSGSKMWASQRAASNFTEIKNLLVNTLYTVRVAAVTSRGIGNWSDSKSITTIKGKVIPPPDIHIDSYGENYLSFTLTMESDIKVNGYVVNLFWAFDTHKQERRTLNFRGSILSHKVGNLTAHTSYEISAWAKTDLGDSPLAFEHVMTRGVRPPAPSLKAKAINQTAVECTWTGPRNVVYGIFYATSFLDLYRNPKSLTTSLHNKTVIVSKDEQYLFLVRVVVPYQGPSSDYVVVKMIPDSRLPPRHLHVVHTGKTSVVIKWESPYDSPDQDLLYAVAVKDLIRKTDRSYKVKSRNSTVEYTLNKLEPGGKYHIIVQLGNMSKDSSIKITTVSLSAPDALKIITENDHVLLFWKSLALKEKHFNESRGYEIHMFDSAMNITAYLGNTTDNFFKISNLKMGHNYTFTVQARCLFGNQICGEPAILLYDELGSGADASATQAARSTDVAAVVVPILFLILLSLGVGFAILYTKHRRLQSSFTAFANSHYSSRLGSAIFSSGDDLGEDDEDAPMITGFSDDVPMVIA
UniProt Q9Y6N5: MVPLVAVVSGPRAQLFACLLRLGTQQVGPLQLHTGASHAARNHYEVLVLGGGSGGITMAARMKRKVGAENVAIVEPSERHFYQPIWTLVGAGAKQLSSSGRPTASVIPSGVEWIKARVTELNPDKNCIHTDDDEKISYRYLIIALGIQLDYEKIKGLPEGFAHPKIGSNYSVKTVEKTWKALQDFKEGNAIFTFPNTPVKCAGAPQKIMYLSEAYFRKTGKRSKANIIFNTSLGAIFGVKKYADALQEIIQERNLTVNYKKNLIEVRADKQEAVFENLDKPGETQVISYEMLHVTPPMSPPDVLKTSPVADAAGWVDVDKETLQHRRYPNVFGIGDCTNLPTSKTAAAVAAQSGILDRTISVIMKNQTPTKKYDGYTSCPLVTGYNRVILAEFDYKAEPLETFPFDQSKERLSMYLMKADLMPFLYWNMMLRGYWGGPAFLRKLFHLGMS
UniProt P36956: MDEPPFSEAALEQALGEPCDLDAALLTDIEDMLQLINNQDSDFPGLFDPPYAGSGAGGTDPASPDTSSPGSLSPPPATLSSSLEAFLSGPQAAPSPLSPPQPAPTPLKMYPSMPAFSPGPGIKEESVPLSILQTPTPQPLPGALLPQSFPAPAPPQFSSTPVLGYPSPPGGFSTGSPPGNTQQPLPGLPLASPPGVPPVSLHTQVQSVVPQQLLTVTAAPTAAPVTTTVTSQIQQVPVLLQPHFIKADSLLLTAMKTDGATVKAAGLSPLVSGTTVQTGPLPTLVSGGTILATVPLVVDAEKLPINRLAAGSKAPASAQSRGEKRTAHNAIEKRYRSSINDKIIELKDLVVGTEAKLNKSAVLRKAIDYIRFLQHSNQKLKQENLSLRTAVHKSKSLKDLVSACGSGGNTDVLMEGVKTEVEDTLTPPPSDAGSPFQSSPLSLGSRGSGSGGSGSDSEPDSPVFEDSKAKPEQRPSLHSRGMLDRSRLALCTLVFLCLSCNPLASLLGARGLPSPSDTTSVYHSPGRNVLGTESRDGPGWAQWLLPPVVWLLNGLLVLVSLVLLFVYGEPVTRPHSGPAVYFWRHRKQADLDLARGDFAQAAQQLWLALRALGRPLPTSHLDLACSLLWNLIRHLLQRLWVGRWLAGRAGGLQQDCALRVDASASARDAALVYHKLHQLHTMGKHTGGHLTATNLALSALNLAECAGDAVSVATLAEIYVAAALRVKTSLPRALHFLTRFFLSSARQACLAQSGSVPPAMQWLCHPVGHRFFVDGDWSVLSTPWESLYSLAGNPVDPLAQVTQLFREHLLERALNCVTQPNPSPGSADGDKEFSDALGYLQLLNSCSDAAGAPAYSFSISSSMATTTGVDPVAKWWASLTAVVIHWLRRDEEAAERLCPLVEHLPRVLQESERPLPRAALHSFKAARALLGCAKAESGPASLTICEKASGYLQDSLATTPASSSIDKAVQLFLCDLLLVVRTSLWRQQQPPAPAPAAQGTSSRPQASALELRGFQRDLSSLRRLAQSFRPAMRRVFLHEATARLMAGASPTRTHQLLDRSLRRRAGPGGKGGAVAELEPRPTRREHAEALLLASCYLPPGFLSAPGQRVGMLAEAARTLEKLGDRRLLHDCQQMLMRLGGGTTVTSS

Target	probe-labelled cysteine peptide fold change (10 µM)	probe-labelled cysteine peptide fold change (50 µM)
SRBD1_Q8N5C6_571_LAIISPTSQILHTDVVYLHCGQGFR (UniProt Q8N5C6)	0.207	-0.0215
SNX27_Q96L92_432_TCEGYNEIIFPHCACDSR (UniProt Q96L92)	0.0233	0.111
SPPL2B_Q8TCT7_45_DYCILYNPQWAHLPHDLSK (UniProt Q8TCT7)	0.0757	-0.119
SNU13_P55769_102_ACGVSRPVIACSVTIK (UniProt P55769)	0.263	0.155
SRM_P19623_25_ETCSLWPGQALSLQVEQLLHHR (UniProt P19623)	0.023	0.121
SNTB1_Q13884_515_DGEIQLDLHSCPKPIVFIIHSFLSAK (UniProt Q13884)	-0.183	0.331
SRA1_Q9HD15_134_QVCDDISR (UniProt Q9HD15)	0.0881	0.0823
SNX27_Q96L92_30_NGGGGGGGGSGLHCAGNGGGGGGGPR (UniProt Q96L92)	-0.141	-0.383
SRPK2_P78362_680_ASAGECLR (UniProt P78362)	-0.181	-0.0361
SRP72_O76094_50_DDVTALHCK (UniProt O76094)	0.224	-0.266
SORBS3_O60504_521_LCDDGPQLPTSPR (UniProt O60504)	-0.236	-0.00591
SRPRB_Q9Y5M8_246_EFEFSQLPLKVEFLECSAK (UniProt Q9Y5M8)	-0.354	-1.1
SRP54_P61011_136_TCLICADTFR (UniProt P61011)	-0.0353	-0.0655
SPTBN1_Q01082_1900_SLLDACESR (UniProt Q01082)	0.136	0.207
SRCAP_Q6ZRS2_1926_IFQLSEAHGALAPVYGTEVLDFCTLPQPVASPIGPR (UniProt Q6ZRS2)	0.324	0.642
SORL1_Q92673_736_ISGDTCSGGDVEAR (UniProt Q92673)	-0.187	-0.179
SQOR_Q9Y6N5_379_KYDGYTSCPLVTGYNR (UniProt Q9Y6N5)	-0.116	-0.0993
SPC24_Q8NBT2_155_IEWDYECEPGMVK (UniProt Q8NBT2)	-0.17	0.000933
SREBF1_P36956_932_ALLGCAK (UniProt P36956)	-0.103	-0.0562
SRP72_O76094_323_ALLAMYTNQAEQCRK (UniProt O76094)	-0.265	-0.447
SP1_P08047_691_FACPECPK (UniProt P08047)	0.118	0.148
SRP9_P49458_39_HSDGNLCVK (UniProt P49458)	0.123	0.0246
SRPRA_P08240_253_VWELGGCANK (UniProt P08240)	-0.192	-0.783
SP3_Q02447_628_KQHICHIPGCGK (UniProt Q02447)	-0.201	-0.623

Single records (already shown):
SREBF1_P36956_932_ALLGCAK (UniProt P36956) reads probe-labelled cysteine peptide fold change (10 µM) = -0.103; probe-labelled cysteine peptide fold change (50 µM) = -0.0562
SRP72_O76094_50_DDVTALHCK (UniProt O76094) reads probe-labelled cysteine peptide fold change (10 µM) = 0.224; probe-labelled cysteine peptide fold change (50 µM) = -0.266
